Laboratory results: PMC10176748

By UniProt entry, the sequences of proteins in these tests, tags left out. Residues count along the entry.
UniProt Q64339, residues 1-155: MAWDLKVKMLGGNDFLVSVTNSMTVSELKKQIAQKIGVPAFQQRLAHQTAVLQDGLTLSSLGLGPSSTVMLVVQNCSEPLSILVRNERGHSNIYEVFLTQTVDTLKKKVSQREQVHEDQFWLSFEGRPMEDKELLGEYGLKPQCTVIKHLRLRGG
UniProt E9Q555: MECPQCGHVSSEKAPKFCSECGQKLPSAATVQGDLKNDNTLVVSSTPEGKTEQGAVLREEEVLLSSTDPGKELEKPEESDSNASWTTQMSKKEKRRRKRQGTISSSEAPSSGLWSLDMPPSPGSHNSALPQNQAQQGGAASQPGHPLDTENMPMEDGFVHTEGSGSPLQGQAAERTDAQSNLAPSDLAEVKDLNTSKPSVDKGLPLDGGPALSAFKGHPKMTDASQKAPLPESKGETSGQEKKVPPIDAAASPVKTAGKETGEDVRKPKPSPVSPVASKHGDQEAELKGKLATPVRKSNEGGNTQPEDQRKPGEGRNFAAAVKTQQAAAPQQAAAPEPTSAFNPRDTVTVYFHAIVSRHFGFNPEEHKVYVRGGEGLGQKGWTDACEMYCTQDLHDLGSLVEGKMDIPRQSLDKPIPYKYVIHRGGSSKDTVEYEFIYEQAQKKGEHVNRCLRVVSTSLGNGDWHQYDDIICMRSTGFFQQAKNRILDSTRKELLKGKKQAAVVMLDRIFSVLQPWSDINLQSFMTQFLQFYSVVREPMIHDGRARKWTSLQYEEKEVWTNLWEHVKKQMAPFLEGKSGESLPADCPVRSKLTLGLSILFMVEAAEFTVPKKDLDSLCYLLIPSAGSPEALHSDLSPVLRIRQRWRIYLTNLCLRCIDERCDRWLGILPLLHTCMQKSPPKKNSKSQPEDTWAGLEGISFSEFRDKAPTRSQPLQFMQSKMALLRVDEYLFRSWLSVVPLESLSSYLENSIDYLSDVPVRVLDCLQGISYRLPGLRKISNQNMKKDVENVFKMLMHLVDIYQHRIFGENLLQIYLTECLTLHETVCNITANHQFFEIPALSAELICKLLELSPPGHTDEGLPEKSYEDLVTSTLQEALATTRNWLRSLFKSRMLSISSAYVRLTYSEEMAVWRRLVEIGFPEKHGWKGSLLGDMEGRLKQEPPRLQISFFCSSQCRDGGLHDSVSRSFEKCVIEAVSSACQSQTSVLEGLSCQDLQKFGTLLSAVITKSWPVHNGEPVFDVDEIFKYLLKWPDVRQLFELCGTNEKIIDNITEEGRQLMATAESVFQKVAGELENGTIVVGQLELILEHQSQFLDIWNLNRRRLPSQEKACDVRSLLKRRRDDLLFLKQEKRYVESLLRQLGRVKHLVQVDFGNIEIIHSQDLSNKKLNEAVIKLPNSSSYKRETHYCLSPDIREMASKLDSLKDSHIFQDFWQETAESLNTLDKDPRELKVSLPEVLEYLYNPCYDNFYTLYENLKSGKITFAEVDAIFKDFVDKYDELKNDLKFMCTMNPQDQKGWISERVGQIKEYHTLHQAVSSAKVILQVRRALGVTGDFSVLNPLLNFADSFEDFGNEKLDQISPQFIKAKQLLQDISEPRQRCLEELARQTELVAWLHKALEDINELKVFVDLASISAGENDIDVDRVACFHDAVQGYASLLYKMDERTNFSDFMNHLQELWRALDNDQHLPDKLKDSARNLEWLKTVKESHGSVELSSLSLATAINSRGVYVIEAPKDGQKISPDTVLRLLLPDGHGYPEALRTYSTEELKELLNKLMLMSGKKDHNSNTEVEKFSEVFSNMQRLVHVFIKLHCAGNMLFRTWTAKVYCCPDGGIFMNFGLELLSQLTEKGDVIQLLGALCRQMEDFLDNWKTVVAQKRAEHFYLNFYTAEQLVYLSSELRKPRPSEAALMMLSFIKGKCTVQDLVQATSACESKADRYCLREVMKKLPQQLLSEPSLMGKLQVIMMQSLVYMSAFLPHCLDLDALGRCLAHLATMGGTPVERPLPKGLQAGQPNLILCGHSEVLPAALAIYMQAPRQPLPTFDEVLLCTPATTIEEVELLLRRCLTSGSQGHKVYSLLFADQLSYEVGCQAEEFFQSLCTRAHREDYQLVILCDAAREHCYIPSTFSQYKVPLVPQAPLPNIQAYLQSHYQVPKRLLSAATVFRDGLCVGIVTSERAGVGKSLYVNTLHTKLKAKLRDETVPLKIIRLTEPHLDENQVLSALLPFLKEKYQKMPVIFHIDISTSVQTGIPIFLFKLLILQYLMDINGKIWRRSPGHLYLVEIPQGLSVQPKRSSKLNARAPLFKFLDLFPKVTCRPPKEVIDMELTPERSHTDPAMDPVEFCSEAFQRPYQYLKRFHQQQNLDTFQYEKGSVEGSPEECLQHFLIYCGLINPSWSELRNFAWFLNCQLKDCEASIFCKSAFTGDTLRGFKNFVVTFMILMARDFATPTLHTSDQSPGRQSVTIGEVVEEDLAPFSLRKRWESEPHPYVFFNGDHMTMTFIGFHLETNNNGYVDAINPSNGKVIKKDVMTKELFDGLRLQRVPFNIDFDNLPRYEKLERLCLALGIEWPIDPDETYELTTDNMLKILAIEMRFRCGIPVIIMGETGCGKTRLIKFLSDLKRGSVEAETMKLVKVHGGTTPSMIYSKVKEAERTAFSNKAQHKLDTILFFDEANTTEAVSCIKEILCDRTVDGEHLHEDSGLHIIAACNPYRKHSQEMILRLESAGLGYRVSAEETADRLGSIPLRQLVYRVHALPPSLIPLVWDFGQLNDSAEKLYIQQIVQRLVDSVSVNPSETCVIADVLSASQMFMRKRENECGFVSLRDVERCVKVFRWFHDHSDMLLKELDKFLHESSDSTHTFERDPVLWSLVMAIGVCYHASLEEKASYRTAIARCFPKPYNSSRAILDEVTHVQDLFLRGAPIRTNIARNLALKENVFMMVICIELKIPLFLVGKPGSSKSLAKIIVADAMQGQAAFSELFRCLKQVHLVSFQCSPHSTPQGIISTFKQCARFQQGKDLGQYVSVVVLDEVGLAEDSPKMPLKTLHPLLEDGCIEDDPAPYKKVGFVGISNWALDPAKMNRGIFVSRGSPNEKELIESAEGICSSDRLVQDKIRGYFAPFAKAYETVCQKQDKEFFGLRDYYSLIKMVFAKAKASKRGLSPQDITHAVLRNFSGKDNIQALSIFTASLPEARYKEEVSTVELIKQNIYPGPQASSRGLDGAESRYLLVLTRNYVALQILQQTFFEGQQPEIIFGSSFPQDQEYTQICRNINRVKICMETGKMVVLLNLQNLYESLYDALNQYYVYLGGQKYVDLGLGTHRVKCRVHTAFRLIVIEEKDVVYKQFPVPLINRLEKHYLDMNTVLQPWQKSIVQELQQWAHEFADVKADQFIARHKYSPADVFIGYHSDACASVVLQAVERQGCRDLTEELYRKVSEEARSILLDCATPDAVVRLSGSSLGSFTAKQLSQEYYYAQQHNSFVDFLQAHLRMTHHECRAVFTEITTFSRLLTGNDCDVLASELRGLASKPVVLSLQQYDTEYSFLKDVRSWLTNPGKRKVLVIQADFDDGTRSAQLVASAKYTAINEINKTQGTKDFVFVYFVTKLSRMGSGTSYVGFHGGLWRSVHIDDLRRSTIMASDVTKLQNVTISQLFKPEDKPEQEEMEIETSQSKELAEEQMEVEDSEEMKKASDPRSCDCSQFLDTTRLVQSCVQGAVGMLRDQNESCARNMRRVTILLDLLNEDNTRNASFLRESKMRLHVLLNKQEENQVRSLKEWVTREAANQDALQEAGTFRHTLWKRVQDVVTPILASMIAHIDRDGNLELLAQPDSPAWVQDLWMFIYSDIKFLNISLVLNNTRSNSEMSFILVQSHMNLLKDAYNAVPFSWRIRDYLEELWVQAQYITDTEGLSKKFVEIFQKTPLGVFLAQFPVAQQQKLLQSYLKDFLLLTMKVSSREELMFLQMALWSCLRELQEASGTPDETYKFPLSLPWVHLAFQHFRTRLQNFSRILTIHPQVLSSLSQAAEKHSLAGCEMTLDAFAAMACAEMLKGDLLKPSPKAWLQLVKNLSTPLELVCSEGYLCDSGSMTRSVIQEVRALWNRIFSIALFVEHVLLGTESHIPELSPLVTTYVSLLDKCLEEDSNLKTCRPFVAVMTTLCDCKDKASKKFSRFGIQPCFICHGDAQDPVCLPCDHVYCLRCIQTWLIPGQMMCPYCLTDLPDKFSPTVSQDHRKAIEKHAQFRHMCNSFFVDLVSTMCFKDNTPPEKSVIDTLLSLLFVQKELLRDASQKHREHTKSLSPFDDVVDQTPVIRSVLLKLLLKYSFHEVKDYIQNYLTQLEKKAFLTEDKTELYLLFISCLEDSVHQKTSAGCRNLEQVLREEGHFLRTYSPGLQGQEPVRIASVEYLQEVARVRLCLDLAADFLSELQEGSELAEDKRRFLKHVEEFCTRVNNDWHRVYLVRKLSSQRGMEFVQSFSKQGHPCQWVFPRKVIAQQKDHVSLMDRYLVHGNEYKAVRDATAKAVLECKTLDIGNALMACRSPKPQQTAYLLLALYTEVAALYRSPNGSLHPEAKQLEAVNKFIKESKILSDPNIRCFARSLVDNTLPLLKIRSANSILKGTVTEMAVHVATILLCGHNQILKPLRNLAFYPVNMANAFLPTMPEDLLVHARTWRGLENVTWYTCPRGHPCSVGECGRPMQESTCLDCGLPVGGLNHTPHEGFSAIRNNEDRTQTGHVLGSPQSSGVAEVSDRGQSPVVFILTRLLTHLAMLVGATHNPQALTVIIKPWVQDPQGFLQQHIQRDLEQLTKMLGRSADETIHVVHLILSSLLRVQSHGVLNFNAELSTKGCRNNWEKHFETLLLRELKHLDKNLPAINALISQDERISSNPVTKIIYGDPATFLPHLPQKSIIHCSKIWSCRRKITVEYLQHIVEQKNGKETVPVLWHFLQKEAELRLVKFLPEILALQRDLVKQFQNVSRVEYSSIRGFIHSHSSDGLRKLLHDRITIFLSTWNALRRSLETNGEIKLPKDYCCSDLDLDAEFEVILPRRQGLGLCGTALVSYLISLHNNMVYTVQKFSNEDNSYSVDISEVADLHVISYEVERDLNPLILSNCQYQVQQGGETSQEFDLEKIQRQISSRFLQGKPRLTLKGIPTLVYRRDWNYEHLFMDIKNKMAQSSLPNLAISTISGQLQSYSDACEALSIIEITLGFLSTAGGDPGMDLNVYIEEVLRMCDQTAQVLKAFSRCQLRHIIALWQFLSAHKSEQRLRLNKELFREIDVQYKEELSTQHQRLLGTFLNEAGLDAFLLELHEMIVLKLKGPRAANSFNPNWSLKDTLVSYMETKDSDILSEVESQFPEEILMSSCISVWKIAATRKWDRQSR

Target: FLAG-ISG15 (interferon-stimulated gene 15) (mouse) (UniProt Q64339)
Assay: affinity purification with mass spectrometry; FLAG-ISG15 immunoprecipitated from lysate of transfected mGCs with anti-FLAG magnetic beads overnight at 4 °C, washed with PBST; immunoprecipitates identified by mass spectrometry

| binding | Molecule |
| --- | --- |
| binds | ring finger protein 213 (RNF213) (from UniProt E9Q555 1-5148) |
| binds | protease serine 23 (PRSS23) (protein, UniProt Q9D6X6 23-382) YTVPWKPTWPAYRLPVVLPQSTLNLAKADFDAKAKLEVSSSCGPQCHKGTPLPTYEEAKQYLSYETLYANGSRTETRVGIYILSNGEGRARGRDSEATGRSRRKRQIYGYDGRFSIFGKDFLLNYPFSTSVKLSTGCTGTLVAEKHVLTAAHCIHDGKTYVKGTQKLRVGFLKPKYKDGAGGDNSSSSAMPDKMKFQWIRVKRTHVPKGWIKGNANDIGMDYDYALLELKKPHKRQFMKIGVSPPAKQLPGGRIHFSGYDNDRPGNLVYRFCDVKDETYDLLYQQCDAQPGASGSGVYVRMWKRPQQKWERKIIGIFSGHQWVDMNGSPQDFNVAVRITPLKYAQICYWIKGNYLDCREG |

These are yes or no findings as the source states them, for the method shown. In cells and extracts the contact can be indirect. These calls come from enrichment with a bait or labelling near it, and not all partners need be listed.
